According to PMC6658197:
These are yes or no findings as the source states them, for the method shown. In cells and extracts the contact can be indirect. Some results given as binding are weak or reduced against the parent protein; the word gives no strength.

The chains behind the UniProt entries cited, without tags or fusion partners.
UniProt Q60823: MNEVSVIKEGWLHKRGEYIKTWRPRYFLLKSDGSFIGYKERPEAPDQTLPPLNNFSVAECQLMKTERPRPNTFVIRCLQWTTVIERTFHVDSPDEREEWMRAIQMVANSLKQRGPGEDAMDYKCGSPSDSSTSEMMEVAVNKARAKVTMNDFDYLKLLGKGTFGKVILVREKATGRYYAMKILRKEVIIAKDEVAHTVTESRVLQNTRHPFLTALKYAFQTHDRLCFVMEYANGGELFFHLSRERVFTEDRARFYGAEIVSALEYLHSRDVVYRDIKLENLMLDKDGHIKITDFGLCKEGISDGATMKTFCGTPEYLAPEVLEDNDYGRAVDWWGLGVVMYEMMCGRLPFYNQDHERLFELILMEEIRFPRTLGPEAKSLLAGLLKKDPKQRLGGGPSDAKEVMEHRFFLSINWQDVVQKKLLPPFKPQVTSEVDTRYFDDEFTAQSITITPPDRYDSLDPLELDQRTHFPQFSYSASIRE

Target: HA-tagged AKT2 WT (UniProt Q60823)
Assay: co-IP; HEK293T cells transiently transfected with HA-tagged AKT and ARHGAP36; IP with mouse anti-HA antibody (anti-IgG as negative control), blot with anti-ARHGAP36; IP buffer 20 mM Tris-HCl pH 8.0, 0.5% NP-40, 1 mM EDTA, 150 mM NaCl, 10% glycerol; with or without 10 uM iAKT1/2 for 20 hr (association decreased by the inhibitor)

B1: ARHGAP36 (protein, UniProt B1AUC7 1-590)
chain: MAWMLDCLFASAFEPRPRRVSVLGGAPGQNSDRSMDMVSIHSLSELERLKLQETAYHELVARHFLSEFKPDRALPTDRPNTLEKWFLMLRGQDRAASLKTFGIRLEEVLVNELTRRKQRELTPTMQVEDINGSTGRRRRGNVVQRMLGRMRRFFSRRRNEPTLPREFTRRGRRGAVSADSADELENGALLLQILQLSQLSSPIGQRLLGSKRKMSLNPIAQQIPQIVETCCKFIEKHGLSSVGIFTIEYSLRRVLELRELFDKGLDIVLDDSVNVHDVAELLKEFFREMKDPLLPDDLYMSFLLTATLKPKDQVSALQLLVYLMPPCHSDTLERLLKALHKITENCEDSIGVDGQLVPGNRMTSTNLALVFGTALLKKGKLANKESRKTKLGIDHYVASVNVVRAMIDNWDILFQVPPHIQKEVAKRVWKSSPEALDFIRRRNLRKIQSARIKMEEDALLSDPVENSAEAQAAILAQSQPFDEDPEGAPDVHEVLNDNLNYDFEDESDFEDQDHLDLAEVPYLDVIPNNEDTDSDADVIPGPSEEPAVPASTAGSPDKEEGAAGNPPNADRPLPRVPQGKKGKFATRFFP
**Q.** B1 was tested. Which binding did it give?
**A.** binds
